Data from PubChem BioAssay AID461 (SRMLSC, 2006).
The other results are listed elsewhere or left out.

Assay: Her2 expression decrease, cell viability multiplex – SKBR3 breast tumor cells, AlphaScreen, ATP viability, primary screen (AID 461);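 further: percent of carrier control wells set as 100% viability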
Conditions: SKBR3 Her2 protein level, 18-24 h, measured here: SKBR3 viability, ATP luminescence, at 10 µM, stronger effect = higher value
With `CP(=O)(Nc1ccccn1)Oc1ccccc1` (stereo not drawn) the viability was 88%.
`CP(=O)(Nc1ccc2c(c1)OCCO2)Oc1ccccc1` (stereo not drawn) showed a viability of 114%.
In the case of `O=P(Nc1nccs1)(c1ccccc1)c1ccccc1`, the viability is reported as 102%.
For `CN(C)CCOC(=O)C(O)(c1ccccc1)C1CCCCC1` (stereo not drawn), the viability was 102%.
For `Cc1ccc(C)c(NP(C)(=O)Oc2ccccc2)c1` (stereo not drawn), the viability was 113%.
For `CCOP1(=S)c2c(C)nn(CCC#N)c2N=C(c2ccccc2F)N1C` (stereo not drawn), the viability was 114%.
In the case of `O=C(COc1ccccc1)OC1CN2CCC1CC2` (stereo not drawn), the viability is reported as 94.5%.
For `CP(=S)(Nn1cnnc1)Oc1ccccc1` (stereo not drawn), the viability was 101%.
